This is one part of the list. The calls rarely recur for the same compound in another form.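 Kinases were expressed as nanoluciferase fusions in K562 cells and luminescence was read every 4 h between 2 and 18 h as percent of control, DMSO set to 100% and a positive control to 0%. A time point counts as decreased when the signal drops significantly (2 sigma). The hit call is the authors' own, does not follow from the count of time points alone, and its rule is not shown.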
Experiments:
Assay in all cases: kinase-Nluc reporter destabilization hit call (1 = scored as downregulated) (binary); higher = compound decreases kinase abundance
Details in all cases: K562; 2-18 h
ABL1 = ABL1 (UniProt P00519)
AKT1 = AKT1 (UniProt P31749)
ALK = ALK (UniProt Q9UM73)
ARAF = ARAF (UniProt P10398)
AURKA = AURKA (UniProt O14965)
AURKB = AURKB (UniProt Q96GD4)
AURKC = AURKC (UniProt Q9UQB9)
BLK = BLK (UniProt P51451)
BMX = BMX (UniProt P51813)
BRAF = BRAF (UniProt P15056)

The chains behind the UniProt entries cited, without tags or fusion partners. Where a name states a change or a piece, a line headed by the entry shows the natural chain unless it says otherwise.
UniProt P00519, whole entry: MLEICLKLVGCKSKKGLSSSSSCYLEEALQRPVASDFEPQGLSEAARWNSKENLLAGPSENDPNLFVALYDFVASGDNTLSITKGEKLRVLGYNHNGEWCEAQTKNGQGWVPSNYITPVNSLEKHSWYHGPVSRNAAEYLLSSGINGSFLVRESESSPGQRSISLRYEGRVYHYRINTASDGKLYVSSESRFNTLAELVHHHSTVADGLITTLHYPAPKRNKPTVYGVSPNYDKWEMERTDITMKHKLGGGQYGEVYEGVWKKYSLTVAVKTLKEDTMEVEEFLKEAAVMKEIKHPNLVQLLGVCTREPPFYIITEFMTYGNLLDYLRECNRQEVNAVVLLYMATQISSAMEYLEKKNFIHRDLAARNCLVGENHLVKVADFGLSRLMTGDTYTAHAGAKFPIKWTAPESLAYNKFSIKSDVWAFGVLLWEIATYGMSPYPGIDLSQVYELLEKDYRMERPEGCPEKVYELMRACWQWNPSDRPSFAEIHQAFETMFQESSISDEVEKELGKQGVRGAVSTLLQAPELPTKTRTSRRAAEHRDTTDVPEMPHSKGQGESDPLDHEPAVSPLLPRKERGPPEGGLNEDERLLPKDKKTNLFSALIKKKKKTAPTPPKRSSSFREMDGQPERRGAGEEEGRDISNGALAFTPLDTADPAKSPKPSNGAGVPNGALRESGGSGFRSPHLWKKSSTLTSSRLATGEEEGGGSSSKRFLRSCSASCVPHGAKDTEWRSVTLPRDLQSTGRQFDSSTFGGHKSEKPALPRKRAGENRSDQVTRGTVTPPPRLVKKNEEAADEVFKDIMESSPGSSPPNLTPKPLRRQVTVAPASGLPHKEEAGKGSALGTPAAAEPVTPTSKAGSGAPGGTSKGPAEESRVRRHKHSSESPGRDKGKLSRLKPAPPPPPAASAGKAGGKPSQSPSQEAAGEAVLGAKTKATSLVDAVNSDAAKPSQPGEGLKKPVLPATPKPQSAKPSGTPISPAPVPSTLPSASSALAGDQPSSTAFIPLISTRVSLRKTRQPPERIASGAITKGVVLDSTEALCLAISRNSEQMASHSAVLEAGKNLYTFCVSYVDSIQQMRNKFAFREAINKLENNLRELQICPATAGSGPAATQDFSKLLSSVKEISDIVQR
UniProt P31749: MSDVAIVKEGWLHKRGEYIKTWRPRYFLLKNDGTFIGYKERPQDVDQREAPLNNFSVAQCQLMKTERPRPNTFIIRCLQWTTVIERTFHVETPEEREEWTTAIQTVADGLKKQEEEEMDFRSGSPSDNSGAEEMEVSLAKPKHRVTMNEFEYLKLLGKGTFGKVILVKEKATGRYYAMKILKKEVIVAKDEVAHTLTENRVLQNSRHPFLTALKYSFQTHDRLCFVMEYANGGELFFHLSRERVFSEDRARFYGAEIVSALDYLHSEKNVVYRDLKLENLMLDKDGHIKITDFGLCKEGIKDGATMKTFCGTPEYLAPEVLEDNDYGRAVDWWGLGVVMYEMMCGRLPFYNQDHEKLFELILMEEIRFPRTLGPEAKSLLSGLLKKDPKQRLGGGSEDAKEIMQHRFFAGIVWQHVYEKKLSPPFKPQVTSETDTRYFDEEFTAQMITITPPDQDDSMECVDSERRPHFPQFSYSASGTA
UniProt Q9UM73: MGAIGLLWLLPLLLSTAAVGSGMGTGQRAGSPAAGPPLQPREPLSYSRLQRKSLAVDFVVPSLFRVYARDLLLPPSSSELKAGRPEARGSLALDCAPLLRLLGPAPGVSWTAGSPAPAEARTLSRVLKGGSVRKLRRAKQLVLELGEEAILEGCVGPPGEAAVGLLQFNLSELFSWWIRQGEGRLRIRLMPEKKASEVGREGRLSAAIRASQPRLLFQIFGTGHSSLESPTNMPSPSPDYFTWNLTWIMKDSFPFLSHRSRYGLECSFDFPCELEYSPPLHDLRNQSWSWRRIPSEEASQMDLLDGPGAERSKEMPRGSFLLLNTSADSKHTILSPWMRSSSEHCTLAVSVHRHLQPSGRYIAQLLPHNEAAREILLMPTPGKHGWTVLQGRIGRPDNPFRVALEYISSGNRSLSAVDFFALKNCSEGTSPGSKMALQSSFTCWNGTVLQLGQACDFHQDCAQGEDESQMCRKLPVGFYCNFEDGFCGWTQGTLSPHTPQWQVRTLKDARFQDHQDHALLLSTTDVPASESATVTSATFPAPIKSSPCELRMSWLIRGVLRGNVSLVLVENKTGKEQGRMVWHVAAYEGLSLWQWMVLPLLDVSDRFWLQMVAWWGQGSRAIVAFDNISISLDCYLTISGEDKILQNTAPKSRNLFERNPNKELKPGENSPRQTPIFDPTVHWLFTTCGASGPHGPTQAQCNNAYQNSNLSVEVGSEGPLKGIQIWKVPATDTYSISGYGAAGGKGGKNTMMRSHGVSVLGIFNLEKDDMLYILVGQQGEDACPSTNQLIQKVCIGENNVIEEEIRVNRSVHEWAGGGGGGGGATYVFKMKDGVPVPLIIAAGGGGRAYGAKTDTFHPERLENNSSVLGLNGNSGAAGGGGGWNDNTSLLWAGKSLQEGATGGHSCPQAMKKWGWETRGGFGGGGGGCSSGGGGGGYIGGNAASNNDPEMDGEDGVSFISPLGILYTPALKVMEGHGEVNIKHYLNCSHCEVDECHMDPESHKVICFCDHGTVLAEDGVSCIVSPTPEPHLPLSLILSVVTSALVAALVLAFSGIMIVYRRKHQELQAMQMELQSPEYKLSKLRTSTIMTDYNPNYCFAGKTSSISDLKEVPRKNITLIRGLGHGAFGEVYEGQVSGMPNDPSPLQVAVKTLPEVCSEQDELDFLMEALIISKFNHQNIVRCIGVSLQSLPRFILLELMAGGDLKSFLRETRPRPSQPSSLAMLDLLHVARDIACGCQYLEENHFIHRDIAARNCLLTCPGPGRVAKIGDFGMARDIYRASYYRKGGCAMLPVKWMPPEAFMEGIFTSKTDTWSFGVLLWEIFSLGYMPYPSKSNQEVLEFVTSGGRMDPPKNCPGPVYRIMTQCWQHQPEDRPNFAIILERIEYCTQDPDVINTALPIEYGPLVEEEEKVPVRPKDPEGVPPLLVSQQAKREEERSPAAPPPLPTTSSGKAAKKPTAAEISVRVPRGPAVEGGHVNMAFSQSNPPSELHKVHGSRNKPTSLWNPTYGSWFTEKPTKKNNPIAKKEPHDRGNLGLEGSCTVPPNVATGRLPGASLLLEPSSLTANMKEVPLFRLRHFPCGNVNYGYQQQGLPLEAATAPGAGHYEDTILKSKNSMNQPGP
UniProt P10398: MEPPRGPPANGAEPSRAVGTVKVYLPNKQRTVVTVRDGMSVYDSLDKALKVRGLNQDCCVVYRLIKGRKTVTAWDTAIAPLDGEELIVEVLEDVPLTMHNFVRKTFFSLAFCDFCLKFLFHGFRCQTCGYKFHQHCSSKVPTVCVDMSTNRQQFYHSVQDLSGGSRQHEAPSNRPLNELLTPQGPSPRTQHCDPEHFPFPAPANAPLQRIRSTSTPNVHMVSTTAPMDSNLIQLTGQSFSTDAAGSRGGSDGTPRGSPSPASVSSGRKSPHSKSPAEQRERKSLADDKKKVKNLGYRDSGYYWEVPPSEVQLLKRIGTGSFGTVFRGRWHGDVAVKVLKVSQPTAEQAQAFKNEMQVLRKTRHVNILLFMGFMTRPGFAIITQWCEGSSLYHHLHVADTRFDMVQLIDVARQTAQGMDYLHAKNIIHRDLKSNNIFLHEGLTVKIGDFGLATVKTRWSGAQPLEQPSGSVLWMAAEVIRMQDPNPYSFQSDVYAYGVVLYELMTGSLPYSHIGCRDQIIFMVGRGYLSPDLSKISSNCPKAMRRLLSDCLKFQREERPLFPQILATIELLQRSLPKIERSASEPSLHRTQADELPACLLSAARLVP
UniProt O14965: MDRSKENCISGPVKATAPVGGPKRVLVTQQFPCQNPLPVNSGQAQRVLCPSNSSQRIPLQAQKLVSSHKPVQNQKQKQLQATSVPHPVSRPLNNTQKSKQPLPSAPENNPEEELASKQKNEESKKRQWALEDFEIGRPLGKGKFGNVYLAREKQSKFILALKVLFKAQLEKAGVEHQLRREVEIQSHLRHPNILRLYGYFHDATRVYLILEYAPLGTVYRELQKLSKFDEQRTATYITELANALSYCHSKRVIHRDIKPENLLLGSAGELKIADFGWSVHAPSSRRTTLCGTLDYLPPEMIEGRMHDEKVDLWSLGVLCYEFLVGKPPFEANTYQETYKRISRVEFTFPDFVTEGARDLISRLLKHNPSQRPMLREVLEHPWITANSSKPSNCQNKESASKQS
UniProt Q96GD4, whole entry: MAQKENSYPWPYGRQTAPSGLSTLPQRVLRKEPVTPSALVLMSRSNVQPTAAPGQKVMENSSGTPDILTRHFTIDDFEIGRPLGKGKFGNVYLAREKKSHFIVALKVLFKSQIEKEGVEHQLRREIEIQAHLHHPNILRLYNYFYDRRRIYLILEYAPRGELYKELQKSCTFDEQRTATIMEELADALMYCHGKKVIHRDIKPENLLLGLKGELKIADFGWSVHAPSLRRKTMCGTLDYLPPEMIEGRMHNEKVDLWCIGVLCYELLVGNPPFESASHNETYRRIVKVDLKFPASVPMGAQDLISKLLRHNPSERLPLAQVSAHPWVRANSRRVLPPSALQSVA
UniProt Q9UQB9: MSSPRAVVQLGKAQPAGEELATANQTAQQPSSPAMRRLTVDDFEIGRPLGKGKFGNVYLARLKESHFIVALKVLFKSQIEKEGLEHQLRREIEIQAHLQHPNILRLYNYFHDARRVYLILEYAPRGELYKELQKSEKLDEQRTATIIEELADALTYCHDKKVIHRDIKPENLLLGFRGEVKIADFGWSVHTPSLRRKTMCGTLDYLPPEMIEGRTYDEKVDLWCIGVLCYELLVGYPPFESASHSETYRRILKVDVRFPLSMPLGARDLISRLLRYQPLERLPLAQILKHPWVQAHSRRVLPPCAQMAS
UniProt P51813: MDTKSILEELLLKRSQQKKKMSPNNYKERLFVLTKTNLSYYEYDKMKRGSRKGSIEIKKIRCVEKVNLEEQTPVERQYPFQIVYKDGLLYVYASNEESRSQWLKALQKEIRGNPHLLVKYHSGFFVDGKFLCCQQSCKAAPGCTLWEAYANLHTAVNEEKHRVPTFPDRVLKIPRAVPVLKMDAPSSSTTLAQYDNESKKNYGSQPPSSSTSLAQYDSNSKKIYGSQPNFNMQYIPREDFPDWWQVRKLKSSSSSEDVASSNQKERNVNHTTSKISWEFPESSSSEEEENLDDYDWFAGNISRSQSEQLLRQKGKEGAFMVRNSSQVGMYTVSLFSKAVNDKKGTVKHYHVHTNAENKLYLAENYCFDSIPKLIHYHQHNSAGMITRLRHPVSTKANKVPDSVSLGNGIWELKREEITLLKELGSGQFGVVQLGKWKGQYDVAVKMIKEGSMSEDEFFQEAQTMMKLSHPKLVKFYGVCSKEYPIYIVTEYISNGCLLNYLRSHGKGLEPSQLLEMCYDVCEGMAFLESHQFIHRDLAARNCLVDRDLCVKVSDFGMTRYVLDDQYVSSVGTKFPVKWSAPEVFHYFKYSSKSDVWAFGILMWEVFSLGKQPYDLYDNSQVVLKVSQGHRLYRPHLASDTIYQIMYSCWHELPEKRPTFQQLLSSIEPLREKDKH
UniProt P15056, whole entry, looked up: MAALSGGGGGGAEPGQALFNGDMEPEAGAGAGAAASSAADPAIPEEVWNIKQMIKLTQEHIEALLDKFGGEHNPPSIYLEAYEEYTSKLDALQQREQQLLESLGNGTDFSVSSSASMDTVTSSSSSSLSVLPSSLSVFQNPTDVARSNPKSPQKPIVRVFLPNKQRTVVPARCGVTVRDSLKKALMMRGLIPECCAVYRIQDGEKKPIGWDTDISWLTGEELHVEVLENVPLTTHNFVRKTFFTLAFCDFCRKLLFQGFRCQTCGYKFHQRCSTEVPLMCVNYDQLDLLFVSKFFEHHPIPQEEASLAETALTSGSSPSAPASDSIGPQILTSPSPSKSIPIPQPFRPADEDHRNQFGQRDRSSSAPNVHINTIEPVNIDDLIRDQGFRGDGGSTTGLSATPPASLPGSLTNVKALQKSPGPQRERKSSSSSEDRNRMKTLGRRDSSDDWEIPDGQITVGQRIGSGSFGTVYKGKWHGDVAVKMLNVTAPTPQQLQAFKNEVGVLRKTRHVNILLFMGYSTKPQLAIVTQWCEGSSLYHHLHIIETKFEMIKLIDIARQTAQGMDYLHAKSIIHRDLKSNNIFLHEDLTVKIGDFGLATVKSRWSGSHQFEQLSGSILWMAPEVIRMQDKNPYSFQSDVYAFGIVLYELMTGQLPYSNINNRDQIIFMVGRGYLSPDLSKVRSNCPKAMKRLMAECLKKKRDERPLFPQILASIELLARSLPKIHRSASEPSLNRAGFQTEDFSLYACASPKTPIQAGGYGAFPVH

Measured: kinase-Nluc reporter destabilization hit call

C[C@H](Nc1ncnc2nc[nH]c12)c1cc2cccc(Cl)c2c(=O)n1-c1ccccc1 [Duvelisib] (10 µM)
inactive: ABL1 = 0 | AKT1 = 0 | ALK 0 | ARAF 0 | AURKA 0 | AURKB 0 | AURKC 0 | BLK 0 | BMX 0 | BRAF 0

COc1ccc2cc(-c3nc(-c4ccc([S+](C)[O-])cc4)[nH]c3-c3ccncc3)ccc2c1 (stereo not given) [Tie2 kinase inhibitor 1] (2.5 µM)
inactive: ABL1 = 0 | AKT1 = 0 | ALK 0 | ARAF 0 | AURKA 0 | AURKB 0 | AURKC 0 | BLK 0 | BMX 0 | BRAF 0

Cc1cccc2c3c(ccc12)C(=O)C1=C(OCC1C)C3=O (stereo not given) [Dihydroisotanshinone I] (2.5 µM)
inactive: ABL1 = 0 | AKT1 = 0 | ALK 0 | ARAF 0 | AURKA 0 | AURKB 0 | AURKC 0 | BLK 0 | BMX 0 | BRAF 0

COc1cc(N2CCOCC2)ccc1NC(=O)c1csc(-c2cccnc2)n1 [IRAK inhibitor 6] (10 µM)
inactive: ABL1 = 0 | AKT1 = 0 | ALK 0 | ARAF 0 | AURKA 0 | AURKB 0 | AURKC 0 | BLK 0 | BMX 0 | BRAF 0

C=CC(=O)Nc1cccc(-c2cccc3cnc(Nc4ccc(N5CCN(CCO)CC5)c(F)c4F)nc23)c1 [Olafertinib] (2.5 µM)
inactive: ABL1 = 0 | AKT1 = 0 | ALK 0 | ARAF 0 | AURKA 0 | AURKB 0 | AURKC 0 | BLK 0 | BMX 0 | BRAF 0

O=C(O)c1cc(=O)c2c(OCC(O)COc3cccc4oc(C(=O)O)cc(=O)c34)cccc2o1 [Cromolyn (sodium)] (10 µM)
inactive: ABL1 = 0 | AKT1 = 0 | ALK 0 | ARAF 0 | AURKA 0 | AURKB 0 | AURKC 0 | BLK 0 | BMX 0 | BRAF 0

CN(C)c1nc2c(Br)c(Br)c(Br)c(Br)c2[nH]1 (10 µM)
inactive: ABL1 = 0 | AKT1 = 0 | ALK 0 | ARAF 0 | AURKA 0 | AURKB 0 | AURKC 0 | BLK 0 | BMX 0 | BRAF 0

Cc1cc2sc(NC(=O)Cc3ccccc3)nc2cc1Cl (10 µM)
inactive: ABL1 = 0 | AKT1 = 0 | ALK 0 | ARAF 0 | AURKA 0 | AURKB 0 | AURKC 0 | BLK 0 | BMX 0 | BRAF 0

COc1ccc(N=Nc2c(N)n[nH]c2N)cc1 (10 µM)
inactive: ABL1 = 0 | AKT1 = 0 | ALK 0 | ARAF 0 | AURKA 0 | AURKB 0 | AURKC 0 | BLK 0 | BMX 0 | BRAF 0

COc1nn(C)cc1Nc1nccc(-c2c[nH]c3c(NC(=O)[C@@H](C)N4CCN(C)CC4)cccc23)n1 (10 µM)
inactive: ABL1 = 0 | AKT1 = 0 | ALK 0 | ARAF 0 | AURKA 0 | AURKB 0 | AURKC 0 | BLK 0 | BMX 0 | BRAF 0

Cc1nn(C)c2c1C(c1ccc(C(F)(F)F)cc1)C(C#N)=C(N)O2 (stereo not given) (10 µM)
inactive: ABL1 = 0 | AKT1 = 0 | ALK 0 | ARAF 0 | AURKA 0 | AURKB 0 | AURKC 0 | BLK 0 | BMX 0 | BRAF 0

In the list so far, these contain fluorine.
C=CC(=O)Nc1cccc(-c2cccc3cnc(Nc4ccc(N5CCN(CCO)CC5)c(F)c4F)nc23)c1 [Olafertinib] (2.5 µM)
inactive: ABL1 = 0 | AKT1 = 0 | ALK 0 | ARAF 0 | AURKA 0 | AURKB 0 | AURKC 0 | BLK 0 | BMX 0 | BRAF 0

Cc1nn(C)c2c1C(c1ccc(C(F)(F)F)cc1)C(C#N)=C(N)O2 (stereo not given) (10 µM)
inactive: ABL1 = 0 | AKT1 = 0 | ALK 0 | ARAF 0 | AURKA 0 | AURKB 0 | AURKC 0 | BLK 0 | BMX 0 | BRAF 0

Later entries.

C[C@@H]1O[C@@H](O[C@@H]2[C@@H](O)[C@H](OCCc3ccc(O)c(O)c3)O[C@H](CO)[C@H]2OC(=O)/C=C/c2ccc(O)c(O)c2)[C@H](O)[C@H](O)[C@H]1O [Verbascoside] (10 µM)
inactive: ABL1 = 0 | AKT1 = 0 | ALK 0 | ARAF 0 | AURKA 0 | AURKB 0 | AURKC 0 | BLK 0 | BMX 0 | BRAF 0

COc1ncccc1-c1cnn2ccc(N3CCN(C(=O)OC(C)C)CC3)nc12 (10 µM)
inactive: ABL1 = 0 | AKT1 = 0 | ALK 0 | ARAF 0 | AURKA 0 | AURKB 0 | AURKC 0 | BLK 0 | BMX 0 | BRAF 0

Cc1cc(Nc2nc(CC3(C(=O)O)CCN(C(=O)c4cccc(Cl)c4Cl)CC3)ccc2F)n[nH]1 (10 µM)
inactive: ABL1 = 0 | AKT1 = 0 | ALK 0 | ARAF 0 | AURKA 0 | AURKB 0 | AURKC 0 | BLK 0 | BMX 0 | BRAF 0

O=C(NC1CCOCC1)c1ccc(-c2cc(-c3c[nH]nc3-c3ccccn3)ccn2)cc1 (10 µM)
inactive: ABL1 = 0 | AKT1 = 0 | ALK 0 | ARAF 0 | AURKA 0 | AURKB 0 | AURKC 0 | BLK 0 | BMX 0 | BRAF 0

CNC(=O)c1ccccc1Oc1nc(Nc2cc(OC)c(OC)c(OC)c2)ncc1Br (2.5 µM)
inactive: ABL1 = 0 | AKT1 = 0 | ALK 0 | ARAF 0 | AURKA 0 | AURKB 0 | AURKC 0 | BLK 0 | BMX 0 | BRAF 0

O[C@@H]1CO[C@H]2[C@@H]1OC[C@H]2Oc1nc2nc(-c3ccc(-c4ccccc4)cc3)c(Cl)cc2[nH]1 (10 µM)
inactive: ABL1 = 0 | AKT1 = 0 | ALK 0 | ARAF 0 | AURKA 0 | AURKB 0 | AURKC 0 | BLK 0 | BMX 0 | BRAF 0

COc1ccc2cc3[n+](cc2c1OC)CCc1cc(O)c(O)cc1-3 [Demethyleneberberine] (10 µM)
inactive: ABL1 = 0 | AKT1 = 0 | ALK 0 | ARAF 0 | AURKA 0 | AURKB 0 | AURKC 0 | BLK 0 | BMX 0 | BRAF 0

N#Cc1c2nc3ccccc3nc2n2ccc(NC(=O)c3cccs3)cc12 (10 µM)
inactive: ABL1 = 0 | AKT1 = 0 | ALK 0 | ARAF 0 | AURKA 0 | AURKB 0 | AURKC 0 | BLK 0 | BMX 0 | BRAF 0

c1cc(NC2CCNCC2)nc(-c2cnc3ccccn23)c1 [IRAK inhibitor 1] (10 µM)
inactive: ABL1 = 0 | AKT1 = 0 | ALK 0 | ARAF 0 | AURKA 0 | AURKB 0 | AURKC 0 | BLK 0 | BMX 0 | BRAF 0

CC/C(=N\NC(=O)c1ccnc(NCCCN2CCOCC2)c1)c1ccc(Cl)cc1O (2.5 µM)
inactive: ABL1 = 0 | AKT1 = 0 | ALK 0 | ARAF 0 | AURKA 0 | AURKB 0 | AURKC 0 | BLK 0 | BMX 0 | BRAF 0

NC(=O)N1CCC(CC(=O)N2CCC([C@H]3c4ncc(Br)cc4CCc4cc(Cl)cc(Br)c43)CC2)CC1 [Lonafarnib] (2.5 µM)
inactive: ABL1 = 0 | AKT1 = 0 | ALK 0 | ARAF 0 | AURKA 0 | AURKB 0 | AURKC 0 | BLK 0 | BMX 0 | BRAF 0

Cc1ccc2c(Nc3cccc(Cl)c3F)nccc2c1NC(=O)c1csc2c(N)ncnc12 [Belvarafenib] (10 µM)
inactive: ABL1 = 0 | AKT1 = 0 | ALK 0 | ARAF 0 | AURKA 0 | AURKB 0 | AURKC 0 | BLK 0 | BMX 0
active: BRAF 1

O=C(Nc1nc2ccc(NC(=O)C34CC5CC(CC(C5)C3)C4)cc2s1)c1ccccc1 (10 µM)
inactive: ABL1 = 0 | AKT1 = 0 | ALK 0 | ARAF 0 | AURKA 0 | AURKB 0 | AURKC 0 | BLK 0 | BMX 0 | BRAF 0

C=C[C@@](C)(/C=C/c1ccc(O)cc1)CCC=C(C)C [Bakuchiol] (10 µM)
inactive: ABL1 = 0 | AKT1 = 0 | ALK 0 | ARAF 0 | AURKA 0 | AURKB 0 | AURKC 0 | BLK 0 | BMX 0 | BRAF 0

C=CC(=O)Nc1cc(Nc2nccc(-n3cc(CN(C)C)c(-c4ccccc4)n3)n2)c(OC)cc1N1CCOCC1 [Lazertinib] (10 µM)
inactive: ABL1 = 0 | AKT1 = 0 | ALK 0 | ARAF 0 | AURKA 0 | AURKB 0 | AURKC 0 | BLK 0 | BMX 0 | BRAF 0

CCCCCCCCCCCCCCCCOP(=O)([O-])OCC[N+](C)(C)C [Miltefosine] (10 µM)
inactive: ABL1 = 0 | AKT1 = 0 | ALK 0 | ARAF 0 | AURKA 0 | AURKB 0 | AURKC 0 | BLK 0 | BMX 0 | BRAF 0

Oc1ccc(/C=C/c2cc(O)cc(O)c2)cc1 [Resveratrol] (10 µM)
inactive: ABL1 = 0 | AKT1 = 0 | ALK 0 | ARAF 0 | AURKA 0 | AURKB 0 | AURKC 0 | BLK 0 | BMX 0 | BRAF 0

COc1c(Nc2cc(C)[nH]n2)nc(Sc2ccc(S(=O)(=O)Cc3cccc([N+](=O)[O-])c3F)cc2F)nc1N1CCCCC1 [Centrinone-B] (2.5 µM)
inactive: ABL1 = 0 | AKT1 = 0 | ALK 0 | ARAF 0 | AURKA 0 | AURKB 0 | AURKC 0 | BLK 0 | BMX 0 | BRAF 0

C=CC(=O)N1C[C@H](COc2nc(Nc3cnn(C)c3)nc3[nH]cc(Cl)c23)[C@@H](OC)C1 (2.5 µM)
inactive: ABL1 = 0 | AKT1 = 0 | ALK 0 | ARAF 0 | AURKA 0 | AURKB 0 | AURKC 0 | BLK 0 | BMX 0 | BRAF 0

CCCCCCCC/C=C\CCCCCCCCCCCC(=O)O [Erucic acid] (10 µM)
inactive: ABL1 = 0 | AKT1 = 0 | ALK 0 | ARAF 0 | AURKA 0 | AURKB 0 | AURKC 0 | BLK 0 | BMX 0 | BRAF 0

— the supplement of paper PMC12823440, “Inhibitors supercharge kinase turnover through native proteolytic circuits” (Nature, 2025)
